# Laboratory results: the supplement of paper PMC12819154, “High-throughput peptide-centric local stability assay extends protein–ligand identification to membrane proteins, tissues and bacteria” (Nature Structural & Molecular Biology, 2025)
# By UniProt entry, the sequences of proteins in these tests, tags left out. Where a name states a change or a piece, a line headed by the entry shows the natural chain unless it says otherwise.
# UniProt Q8K4J0, whole entry: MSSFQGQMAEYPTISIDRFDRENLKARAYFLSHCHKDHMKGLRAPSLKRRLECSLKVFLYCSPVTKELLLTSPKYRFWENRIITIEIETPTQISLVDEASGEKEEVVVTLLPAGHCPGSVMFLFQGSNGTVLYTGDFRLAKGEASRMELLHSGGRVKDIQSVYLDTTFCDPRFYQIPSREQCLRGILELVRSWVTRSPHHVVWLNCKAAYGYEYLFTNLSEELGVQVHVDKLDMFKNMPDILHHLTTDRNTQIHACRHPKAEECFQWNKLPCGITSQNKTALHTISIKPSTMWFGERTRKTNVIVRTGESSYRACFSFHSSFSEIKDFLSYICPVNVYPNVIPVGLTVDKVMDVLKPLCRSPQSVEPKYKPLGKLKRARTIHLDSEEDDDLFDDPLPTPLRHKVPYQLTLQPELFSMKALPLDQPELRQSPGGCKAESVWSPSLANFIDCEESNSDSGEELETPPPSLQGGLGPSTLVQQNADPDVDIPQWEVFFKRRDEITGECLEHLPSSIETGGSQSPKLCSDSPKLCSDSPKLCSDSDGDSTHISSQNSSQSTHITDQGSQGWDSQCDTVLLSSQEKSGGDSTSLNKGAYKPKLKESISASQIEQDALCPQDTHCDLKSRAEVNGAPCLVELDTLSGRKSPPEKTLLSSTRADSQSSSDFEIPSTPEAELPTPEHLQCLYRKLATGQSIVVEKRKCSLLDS
# UniProt Q8R1P4: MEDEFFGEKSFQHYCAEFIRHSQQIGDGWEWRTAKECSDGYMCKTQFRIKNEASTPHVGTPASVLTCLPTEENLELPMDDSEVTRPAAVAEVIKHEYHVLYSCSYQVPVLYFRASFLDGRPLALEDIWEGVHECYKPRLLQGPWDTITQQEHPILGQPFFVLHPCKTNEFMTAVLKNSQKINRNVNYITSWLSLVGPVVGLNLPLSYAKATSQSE
# UniProt Q8R1S9: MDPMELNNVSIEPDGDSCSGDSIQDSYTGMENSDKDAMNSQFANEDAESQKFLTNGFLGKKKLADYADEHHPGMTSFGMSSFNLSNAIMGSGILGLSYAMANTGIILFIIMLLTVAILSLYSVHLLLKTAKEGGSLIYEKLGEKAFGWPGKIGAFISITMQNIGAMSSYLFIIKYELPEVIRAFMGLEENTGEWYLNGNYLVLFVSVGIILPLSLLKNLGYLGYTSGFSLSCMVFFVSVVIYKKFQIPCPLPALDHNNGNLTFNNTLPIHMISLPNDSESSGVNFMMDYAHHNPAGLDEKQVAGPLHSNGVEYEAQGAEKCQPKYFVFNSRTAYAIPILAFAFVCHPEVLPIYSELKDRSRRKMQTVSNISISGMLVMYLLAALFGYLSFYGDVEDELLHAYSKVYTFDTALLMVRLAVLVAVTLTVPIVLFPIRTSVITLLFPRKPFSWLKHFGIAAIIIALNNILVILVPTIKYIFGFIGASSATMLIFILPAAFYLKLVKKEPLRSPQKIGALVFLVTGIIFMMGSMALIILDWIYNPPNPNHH
# UniProt Q8K3I9: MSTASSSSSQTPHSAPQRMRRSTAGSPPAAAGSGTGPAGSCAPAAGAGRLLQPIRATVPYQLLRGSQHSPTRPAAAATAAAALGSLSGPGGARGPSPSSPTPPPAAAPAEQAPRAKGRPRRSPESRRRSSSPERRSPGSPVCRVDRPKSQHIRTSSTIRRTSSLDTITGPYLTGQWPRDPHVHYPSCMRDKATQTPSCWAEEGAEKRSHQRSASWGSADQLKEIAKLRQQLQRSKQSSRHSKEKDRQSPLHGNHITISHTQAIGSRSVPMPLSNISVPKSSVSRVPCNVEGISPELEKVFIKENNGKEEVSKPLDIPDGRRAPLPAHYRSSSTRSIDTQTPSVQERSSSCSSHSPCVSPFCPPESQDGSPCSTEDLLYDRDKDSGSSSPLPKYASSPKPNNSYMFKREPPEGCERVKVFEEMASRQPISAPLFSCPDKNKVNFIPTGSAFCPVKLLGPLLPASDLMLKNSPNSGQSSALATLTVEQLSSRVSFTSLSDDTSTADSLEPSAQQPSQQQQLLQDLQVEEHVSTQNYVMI
# UniProt Q8R0H9: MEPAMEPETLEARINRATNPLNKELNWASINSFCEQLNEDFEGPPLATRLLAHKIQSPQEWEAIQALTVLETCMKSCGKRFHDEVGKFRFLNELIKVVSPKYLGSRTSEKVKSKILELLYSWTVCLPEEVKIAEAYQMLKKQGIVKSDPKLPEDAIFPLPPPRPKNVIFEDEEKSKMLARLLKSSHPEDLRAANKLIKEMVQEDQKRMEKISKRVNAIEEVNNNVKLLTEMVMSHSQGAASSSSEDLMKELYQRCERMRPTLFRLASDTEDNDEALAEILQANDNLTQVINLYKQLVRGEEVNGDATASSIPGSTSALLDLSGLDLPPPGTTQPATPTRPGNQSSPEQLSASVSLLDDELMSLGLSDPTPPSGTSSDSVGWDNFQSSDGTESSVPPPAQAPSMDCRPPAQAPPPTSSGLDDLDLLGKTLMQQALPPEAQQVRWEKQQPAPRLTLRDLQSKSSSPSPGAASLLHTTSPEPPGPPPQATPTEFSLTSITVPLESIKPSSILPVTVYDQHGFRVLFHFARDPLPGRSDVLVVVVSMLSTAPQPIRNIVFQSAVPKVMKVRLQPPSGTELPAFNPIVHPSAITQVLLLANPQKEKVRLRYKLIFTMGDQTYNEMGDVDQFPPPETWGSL
# UniProt Q8R104: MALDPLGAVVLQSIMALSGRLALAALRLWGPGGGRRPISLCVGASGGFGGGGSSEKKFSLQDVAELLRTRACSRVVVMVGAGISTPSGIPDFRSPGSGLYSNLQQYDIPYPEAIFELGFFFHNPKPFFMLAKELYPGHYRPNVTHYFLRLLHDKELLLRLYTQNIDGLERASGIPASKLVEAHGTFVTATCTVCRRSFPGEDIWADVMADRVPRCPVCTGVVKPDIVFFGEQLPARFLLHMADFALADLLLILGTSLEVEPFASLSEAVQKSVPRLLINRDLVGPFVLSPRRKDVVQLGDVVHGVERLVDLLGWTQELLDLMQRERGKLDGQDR
# UniProt Q8K2T1: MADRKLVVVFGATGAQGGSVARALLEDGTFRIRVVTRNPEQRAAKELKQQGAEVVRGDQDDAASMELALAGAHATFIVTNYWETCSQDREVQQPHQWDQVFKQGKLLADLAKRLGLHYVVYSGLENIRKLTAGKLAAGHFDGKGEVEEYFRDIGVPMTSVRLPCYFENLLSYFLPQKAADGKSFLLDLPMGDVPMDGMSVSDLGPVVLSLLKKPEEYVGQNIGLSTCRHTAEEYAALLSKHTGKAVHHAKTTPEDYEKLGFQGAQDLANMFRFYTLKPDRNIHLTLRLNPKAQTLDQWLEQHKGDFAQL
# UniProt Q8K1Z0: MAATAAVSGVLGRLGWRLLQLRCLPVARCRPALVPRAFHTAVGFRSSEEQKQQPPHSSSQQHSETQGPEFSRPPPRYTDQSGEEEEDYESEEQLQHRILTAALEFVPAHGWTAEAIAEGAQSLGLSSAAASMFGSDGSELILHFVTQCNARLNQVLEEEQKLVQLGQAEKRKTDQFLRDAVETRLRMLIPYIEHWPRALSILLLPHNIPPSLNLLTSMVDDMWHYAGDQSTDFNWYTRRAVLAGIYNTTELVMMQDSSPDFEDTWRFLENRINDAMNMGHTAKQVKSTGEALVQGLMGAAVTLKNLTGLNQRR
# UniProt Q8R0V5: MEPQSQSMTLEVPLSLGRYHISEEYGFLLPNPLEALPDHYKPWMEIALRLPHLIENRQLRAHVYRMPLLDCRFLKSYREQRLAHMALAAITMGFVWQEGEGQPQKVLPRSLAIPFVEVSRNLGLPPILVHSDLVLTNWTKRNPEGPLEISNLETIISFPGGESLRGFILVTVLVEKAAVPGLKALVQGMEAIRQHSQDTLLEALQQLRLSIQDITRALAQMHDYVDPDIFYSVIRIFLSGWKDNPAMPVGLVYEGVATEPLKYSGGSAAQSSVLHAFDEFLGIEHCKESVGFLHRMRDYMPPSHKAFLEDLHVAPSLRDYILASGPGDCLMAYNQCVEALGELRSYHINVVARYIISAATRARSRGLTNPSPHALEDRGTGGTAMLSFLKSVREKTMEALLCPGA
# UniProt Q8R0Z2: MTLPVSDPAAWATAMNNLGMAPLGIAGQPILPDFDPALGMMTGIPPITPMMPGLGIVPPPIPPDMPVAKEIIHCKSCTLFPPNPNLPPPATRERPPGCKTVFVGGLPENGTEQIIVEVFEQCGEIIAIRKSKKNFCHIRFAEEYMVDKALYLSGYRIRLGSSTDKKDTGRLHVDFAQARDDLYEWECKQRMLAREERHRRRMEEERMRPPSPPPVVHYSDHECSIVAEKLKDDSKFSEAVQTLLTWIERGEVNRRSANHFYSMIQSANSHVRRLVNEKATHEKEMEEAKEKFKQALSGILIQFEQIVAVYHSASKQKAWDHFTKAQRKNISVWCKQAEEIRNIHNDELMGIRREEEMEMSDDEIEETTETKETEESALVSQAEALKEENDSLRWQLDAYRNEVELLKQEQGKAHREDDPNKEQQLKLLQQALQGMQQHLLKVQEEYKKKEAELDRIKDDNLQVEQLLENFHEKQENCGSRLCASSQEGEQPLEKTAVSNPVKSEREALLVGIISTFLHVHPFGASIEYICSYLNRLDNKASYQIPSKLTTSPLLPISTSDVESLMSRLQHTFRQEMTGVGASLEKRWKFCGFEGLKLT
# UniProt Q8K3D3: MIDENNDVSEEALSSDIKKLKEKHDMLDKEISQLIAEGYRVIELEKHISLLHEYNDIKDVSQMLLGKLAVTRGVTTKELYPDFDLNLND
# The list shows a part of the results. Most entries show no effect beyond the scatter of the controls.
# Compound: CN[C@@H]1C[C@H]2O[C@@](C)([C@@H]1OC)n1c3ccccc3c3c4c(c5c6ccccc6n2c5c31)C(=O)NC4 [staurosporine]
# Assay: log2 fold change of tryptic peptide abundance, ligand vs vehicle (limited proteolysis) (log2 ratio); higher = more trypsin-susceptible (destabilized)
# Details: ligand concentration: 20 uM; sample: mouse liver crude lysate; replicate design: treated separately
row,Target,log2 fold change
1,"UniProt Q8K4J0 (peptide sequence: ALPLDQPELR, peptide start residue: 419)",0.113
2,"UniProt Q8R1P4 (peptide sequence: SFQHYCAEFIR, peptide start residue: 10)",-0.383
3,"UniProt Q8R1S9 (peptide sequence: FLTNGFLGKK, peptide start residue: 52)",0.144
4,"UniProt Q8K3I9 (peptide sequence: QPISAPLFSCPDKNK, peptide start residue: 426)",0.173
5,"UniProt Q8R0H9 (peptide sequence: SSHPEDLR, peptide start residue: 184)",-0.0708
6,"UniProt Q8R104 (peptide sequence: KFSLQDVAELLR, peptide start residue: 57)",-0.296
7,"UniProt Q8K2T1 (peptide sequence: KLVVVFGATGAQGGSVAR, peptide start residue: 5)",0.398
8,"UniProt Q8K1Z0 (peptide sequence: LVQLGQAEKR, peptide start residue: 162)",-0.705
9,"UniProt Q8R0V5 (peptide sequence: SLAIPFVEVSR, peptide start residue: 110)",-0.135
10,"UniProt Q8R0Z2 (peptide sequence: LLQQALQGMQQHLLK, peptide start residue: 427)",-0.417
11,"UniProt Q8K3D3 (peptide sequence: EKHDMLDKEISQLIAEGYR, peptide start residue: 22)",-0.0982

# A few values from the results shown:
# Value for UniProt Q8K4J0 (peptide sequence: ALPLDQPELR, peptide start residue: 419) under log2 fold change: 0.113
# Value for UniProt Q8R0H9 (peptide sequence: SSHPEDLR, peptide start residue: 184) under log2 fold change: -0.0708
